Test results reported in US20180245067A1 (UNIVERSITY OF LEEDS, published 2018).

Target: penicillin binding protein 2a (PBP2a)
Experiment: Adhiron library screen

Binder	binding
KEQDFGKEVNMYTMYYLTLEAKDGGWKKLYEAKVWVKTIRGKNFMFNFK (designed binder) [SEQ ID NO 177]	binds
KEQDFGKEVNMYTMYYLTLEAKDGGWKKLYEAKVWVKTIRGKNFMFNFK (designed binder) [SEQ ID NO 178]	binds
KEQTKSTVSDMETMYYLTLEAKDGGWKKLYEAKVWVKKYWISHFALNFK (designed binder) [SEQ ID NO 179]	binds
KEQTKSTVSDMETMYYLTLEAKDGGWKKLYEAKVWVKKYWISHFALNFK (designed binder) [SEQ ID NO 180]	binds
KEQYYDMPEHLYTMYYLTLEAKDGGWKKLYEAKVWVKTFRFEHMVLNFK (designed binder) [SEQ ID NO 181]	binds
KEQYYEQLPDSPTMYYLTLEAKDGGWKKLYEAKVWVKEMRFQHFQLNFK (designed binder) [SEQ ID NO 182]	binds
KEQMEQHVDILPTMYYLTLEAKDGGWKKLYEAKVWVKVYDFGHFTMNFK (designed binder) [SEQ ID NO 183]	binds
KEQEYRVQHETITMYYLTLEAKDGGWKKLYEAKVWVKEIQGLNFKMNFK (designed binder) [SEQ ID NO 184]	binds
KEQKSPEEYTYETMYYLTLEAKDGGWKKLYEAKVWVKRYWLKLMTLNFK (designed binder) [SEQ ID NO 185]	binds
KEQHAEAYPFTMTMYYLTLEAKDGGWKKLYEAKVWVKVYIFNWGQMNFK (designed binder) [SEQ ID NO 186]	binds
KEQKTLDTFDGFTMYYLTLEAKDGGWKKLYEAKVWVKEIRIEFMILNFK (designed binder) [SEQ ID NO 187]	binds
KEQSQAGEWPHSTMYYLTLEAKDGGWKKLYEAKVWVKQYLGANFIANFK (designed binder) [SEQ ID NO 188]	binds
KEQEHYKNVEPYTMYYLTLEAKDGGWKKLYEAKVWVKQMYFTYFTMNFK (designed binder) [SEQ ID NO 189]	binds
KEQRVDQEIDEWTMYYLTLEAKDGGWKKLYEAKVWVKIFVFRWGAMNFK (designed binder) [SEQ ID NO 190]	binds
KEQTMYYLTLEAKDGGWKKLYEAKVWVKNFK (designed binder) [SEQ ID NO 191]	binds

No constants are given. Whether binding was seen depends on the method and setting. A result given as binding can be weak or reduced; the word gives no strength.
